In the supplement of paper PMC10470496:
Where a name gives a salt, the structure may show the parent alone. Some of the results follow. Single values are uncertain, as repeats are few or missing.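 Three clinical Candida auris isolates (clades III, IV and I) from the CDC resistance isolate bank were grown in RPMI-1640 at 35°C. Growth was background-corrected OD600 relative to same-plate vehicle-only wells. Hits required over 50% inhibition in at least two strains and a plate-corrected B-score above 0.1.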

Experiments:
Assay in all cases: growth relative to vehicle control (OD600 ratio) (fraction); higher = less inhibition
Details in all cases: 24 h
C. auris AR-384 = tested on: C. auris AR-384
C. auris AR-386 = tested on: C. auris AR-386
C. auris AR-387 = tested on: C. auris AR-387

| Compound | growth (C. auris AR-384; 1 µM) | growth (C. auris AR-384; 10 µM) | growth (C. auris AR-386; 1 µM) | growth (C. auris AR-386; 10 µM) | growth (C. auris AR-387; 1 µM) | growth (C. auris AR-387; 10 µM) |
| --- | --- | --- | --- | --- | --- | --- |
| CCCCC1C(=O)N(c2ccccc2)N(c2ccccc2)C1=O [Phenylbutazone] | 0.78 | 0.88 | 1.21 | 0.94 | 0.98 | 1.01 |
| CC[C@H](NC(=O)[C@H](C)NC)C(=O)N1C[C@@H](O)C[C@H]1Cc1c(-c2[nH]c3cc(F)ccc3c2C[C@@H]2C[C@H](O)CN2C(=O)[C@H](CC)NC(=O)[C@H](C)NC)[nH]c2cc(F)ccc12 [Birinapant] | 1.06 | 1.23 | 1.22 | 0.89 | 0.86 | 0.75 |
| CC[C@H](c1ccc(O)cc1)[C@@H](CC)c1ccc(O)cc1 [Hexestrol] | 0.92 | 1 | 1.03 | 1.36 | 1.19 | 0.88 |
| S=c1nc[nH]c2nc[nH]c12 [6-Mercaptopurine (6-MP) Monohydrate] | 0.93 | 0.87 | 0.99 | 1.1 | 1 | 1.11 |
| C[C@H](Cn1cnc2c(N)ncnc21)OCP(=O)(O)O [Tenofovir] | 0.84 | 0.99 | 1.03 | 1.03 | 0.95 | 0.78 |
| c1ccc2[nH]c(-c3cscn3)nc2c1 [Thiabendazole] | 1.17 | 0.81 | 0.86 | 1.37 | 1.04 | 0.92 |
| CC1(C)S[C@@H]2[C@H](NC(=O)[C@H](N)c3ccc(O)cc3)C(=O)N2[C@H]1C(=O)O [Amoxicillin] | 1.27 | 0.65 | 1 | 0.78 | 0.9 | 0.77 |
| CN1CCCC(n2nc(Cc3ccc(Cl)cc3)c3ccccc3c2=O)CC1 (stereo unspecified) [Azelastine HCl] | 0.99 | 0.95 | 1.04 | 1.2 | 1.07 | 1.13 |
| C[N+](C)(C)CCOP(=O)(O)OP(=O)([O-])OC[C@H]1O[C@@H](n2ccc(N)nc2=O)[C@H](O)[C@@H]1O [Citicoline sodium] | 0.96 | 0.85 | 0.62 | 0.67 | 0.94 | 1.27 |
| CC(C)(C)C(=O)C(Oc1ccc(Cl)cc1)n1ccnc1 (stereo unspecified) [Climbazole] | 0.87 | 0.64 | 0.83 | 0.91 | 0.37 | 0.14 |
| CC(=O)O[C@]1(C(C)=O)CC[C@H]2[C@@H]3C=C(C)C4=CC(=O)CC[C@]4(C)[C@H]3CC[C@@]21C [Megestrol Acetate] | 0.95 | 0.76 | 0.76 | 1.04 | 0.72 | 0.88 |
| CCCCOc1cc(C(=O)NCCN(CC)CC)c2ccccc2n1 [Dibucaine HCl] | 0.85 | 0.71 | 0.7 | 0.88 | 0.72 | 0.74 |
| Cc1ccccc1C(OCCN(C)C)c1ccccc1 (stereo unspecified) [Orphenadrine Citrate] | 0.91 | 1.02 | 1 | 0.68 | 0.65 | 0.7 |
| CC1=C(CC(=O)O)c2cc(F)ccc2/C1=C\c1ccc([S+](C)[O-])cc1 (stereo unspecified) [Sulindac] | 0.77 | 0.66 | 0.75 | 0.68 | 0.7 | 0.71 |
| CC1CC(OC(=O)C(O)c2ccccc2)CC(C)(C)C1 (stereo unspecified) [Cyclandelate] | 0.84 | 0.74 | 0.88 | 0.39 | 0.59 | 0.73 |
| Nc1c(Br)cc(Br)cc1CN[C@H]1CC[C@H](O)CC1 [Ambroxol HCl] | 1.26 | 0.91 | 0.73 | 0.89 | 1.01 | 1 |
| Cc1cccc(Nc2ccccc2C(=O)O)c1C [Mefenamic Acid] | 1.11 | 0.82 | 0.85 | 1.09 | 1.03 | 0.74 |
| CC1(C)S[C@@H]2[C@H](NC(=O)[C@H](NC(=O)N3CCN(S(C)(=O)=O)C3=O)c3ccccc3)C(=O)N2[C@H]1C(=O)O [Mezlocillin Sodium] | 0.93 | 0.95 | 0.96 | 1.1 | 0.85 | 1.13 |
| CN(C)CCN1C(=O)c2cccc3cc(N)cc(c23)C1=O [Amonafide] | 0.97 | 1.4 | 1.44 | 1.03 | 1.17 | 0.99 |
| CCOC(=O)C1=C(COCCN)NC(C)=C(C(=O)OC)C1c1ccccc1Cl (stereo unspecified) [Amlodipine Besylate] | 1.23 | 1.03 | 0.98 | 1.19 | 1.1 | 1.14 |
| COc1c(N2C[C@@H]3CCCN[C@@H]3C2)c(F)cc2c(=O)c(C(=O)O)cn(C3CC3)c12 [Moxifloxacin HCl] | 0.68 | 0.74 | 0.57 | 0.77 | 0.95 | 0.83 |
| Cn1nnnc1SCC1=C(C(=O)O)N2C(=O)[C@@H](NC(=O)[C@H](OC=O)c3ccccc3)[C@H]2SC1 [Cefamandole nafate] | 0.79 | 0.96 | 1.08 | 1.24 | 1.1 | 1.16 |
| CC1=NN(c2ccccc2)C(=O)C1 [Edaravone] | 1.12 | 0.71 | 0.93 | 1.2 | 0.92 | 1.19 |

| Compound | growth (C. auris AR-384; 1 µM) | growth (C. auris AR-384; 10 µM) | growth (C. auris AR-386; 1 µM) | growth (C. auris AR-386; 10 µM) | growth (C. auris AR-387; 1 µM) | growth (C. auris AR-387; 10 µM) |
| --- | --- | --- | --- | --- | --- | --- |
| OC1(c2ccc(Cl)c(C(F)(F)F)c2)CCN(CCCC(c2ccc(F)cc2)c2ccc(F)cc2)CC1 [Penfluridol] | 0.84 | 0.66 | 0.7 | 0.76 | 0.71 | 0.44 |
| Nc1ncn([C@@H]2O[C@H](CO)[C@@H](O)[C@H]2O)c(=O)n1 [Azacitidine] | 0.95 | 0.8 | 0.65 | 0.75 | 0.76 | 0.96 |
| C[C@H]1c2cccc(O)c2C(=O)C2=C(O)[C@]3(O)C(=O)C(C(N)=O)=C(O)[C@@H](N(C)C)[C@@H]3[C@@H](O)[C@@H]21 [Doxycycline HCl] | 0.88 | 0.9 | 0.96 | 0.93 | 1.03 | 1 |
| N[C@@H]1CN(c2c(F)cc3c(=O)c(C(=O)O)cn([C@@H]4C[C@@H]4F)c3c2Cl)CC12CC2 [Sitafloxacin Hydrate] | 0.92 | 0.83 | 0.73 | 0.7 | 0.71 | 0.59 |
| CC1COc2c(N3CCN(C)CC3)c(F)cc3c(=O)c(C(=O)O)cn1c23 (stereo unspecified) [Ofloxacin] | 0.75 | 0.82 | 1.08 | 1.1 | 0.78 | 0.84 |
| CC(C)CN(C[C@@H](O)[C@H](Cc1ccccc1)NC(=O)O[C@H]1CCOC1)S(=O)(=O)c1ccc(N)cc1 [Amprenavir] | 0.74 | 0.52 | 0.57 | 1.06 | 0.69 | 0.74 |
| N[C@@H](Cc1cc(I)c(Oc2cc(I)c(O)c(I)c2)c(I)c1)C(=O)O [Levothyroxine sodium] | 0.93 | 0.71 | 0.7 | 0.82 | 1.18 | 0.78 |
| CN1CCN(C(c2ccccc2)c2ccccc2)CC1 [Cyclizine 2HCl] | 0.96 | 0.89 | 1.2 | 0.52 | 1.03 | 0.69 |
| Nc1ccc(S(N)(=O)=O)cc1 [Sulfanilamide] | 0.79 | 0.87 | 0.74 | 0.74 | 0.73 | 0.85 |
| CCCN[C@H]1CCc2nc(N)sc2C1 [Pramipexole] | 1.13 | 1.23 | 1.02 | 1.27 | 1.37 | 1.16 |
| CN(C)CCC=C1c2ccccc2CCc2ccccc21 [Amitriptyline HCl] | 0.94 | 0.94 | 0.97 | 0.88 | 1.1 | 1.09 |
| COc1cc2c(cc1Cc1cccc(Cl)c1F)c(=O)c(C(=O)O)cn2[C@H](CO)C(C)C [Elvitegravir (GS-9137, JTK-303)] | 0.86 | 0.97 | 0.98 | 0.71 | 1.2 | 0.92 |
| CCN(CC)CCCC(C)Nc1ccnc2cc(Cl)ccc12 (stereo unspecified) [Chloroquine Phosphate] | 1.04 | 1 | 0.75 | 0.88 | 0.89 | 0.92 |
| Cn1ccnc1S [Methimazole] | 1.11 | 1.15 | 0.96 | 0.85 | 0.81 | 0.66 |
| Oc1cc(O)c(Cl)cn1 [Gimeracil] | 1.19 | 0.93 | 1.04 | 0.87 | 0.87 | 0.91 |
| CCCCC[C@H](O)/C=C/[C@H]1[C@H](O)CC(=O)[C@@H]1CCCCCCC(=O)O [Alprostadil] | 0.96 | 0.82 | 0.7 | 0.69 | 0.68 | 0.92 |
| CO[C@H]1/C=C/O[C@@]2(C)Oc3c(C)c(O)c4c(O)c(c5c(nc6cc(C)ccn65)c4c3C2=O)NC(=O)/C(C)=C\C=C\[C@H](C)[C@H](O)[C@@H](C)[C@@H](O)[C@@H](C)[C@H](OC(C)=O)[C@@H]1C [Rifaximin] | 0.75 | 0.62 | 0.85 | 0.84 | 0.95 | 0.69 |
| Cc1cc(=O)n(-c2ccccc2)n1C [Antipyrine] | 1.11 | 0.85 | 0.66 | 0.93 | 0.77 | 0.88 |
| C[C@@H]1[C@H](O)[C@@H](C)/C=C/C=C/C=C/C=C/C=C/C=C/C=C/[C@H](O[C@@H]2O[C@H](C)[C@@H](O)[C@H](N)[C@@H]2O)C[C@@H]2O[C@](O)(C[C@@H](O)C[C@@H](O)[C@H](O)CC[C@@H](O)C[C@@H](O)CC(=O)O[C@H]1C)C[C@H](O)[C@H]2C(=O)O [Amphotericin B] | 1.25 | 0.11 | 0.53 | 0.63 | 0.83 | 0.06 |
| CC(C)CCCCC(=O)N[C@@H](CCN)C(=O)N[C@H](C(=O)N[C@@H](CCN)C(=O)N[C@H]1CCNC(=O)[C@H]([C@@H](C)O)NC(=O)[C@H](CCN)NC(=O)[C@H](CCN)NC(=O)[C@H](CC(C)C)NC(=O)[C@@H](Cc2ccccc2)NC(=O)[C@H](CCN)NC1=O)[C@@H](C)O [Polymyxin B sulphate] | 0.69 | 0.76 | 0.96 | 0.92 | 0.68 | 0.74 |
| N=C1CCCN1Cc1[nH]c(=O)[nH]c(=O)c1Cl [Tipiracil hydrochloride] | 1.01 | 0.92 | 1.28 | 0.9 | 0.56 | 0.64 |
| CN(C)CC(c1ccc(O)cc1)C1(O)CCCCC1 (stereo unspecified) [Desvenlafaxine] | 0.94 | 0.77 | 0.81 | 0.72 | 0.71 | 0.82 |
| C[C@H]1C[C@H]2[C@@H]3CCC4=CC(=O)C=C[C@]4(C)[C@H]3C(=O)C[C@]2(C)[C@@]1(O)C(=O)CO [Meprednisone] | 1 | 1.44 | 1.26 | 0.69 | 0.88 | 0.92 |

Full records as entered above. Order of values: growth (C. auris AR-384; 1 µM)	growth (C. auris AR-384; 10 µM)	growth (C. auris AR-386; 1 µM)	growth (C. auris AR-386; 10 µM)	growth (C. auris AR-387; 1 µM)	growth (C. auris AR-387; 10 µM)
Cc1cc(=O)n(-c2ccccc2)n1C [Antipyrine] in the list: 1.11	0.85	0.66	0.93	0.77	0.88
Cc1ccccc1C(OCCN(C)C)c1ccccc1 (stereo unspecified) [Orphenadrine Citrate] in the list: 0.91	1.02	1	0.68	0.65	0.7

Exported as comma-separated lines: 2 of the compounds above.
Compound,growth (C. auris AR-384; 1 µM),growth (C. auris AR-384; 10 µM),growth (C. auris AR-386; 1 µM),growth (C. auris AR-386; 10 µM),growth (C. auris AR-387; 1 µM),growth (C. auris AR-387; 10 µM)
CN(C)CC(c1ccc(O)cc1)C1(O)CCCCC1 (stereo unspecified) [Desvenlafaxine],0.94,0.77,0.81,0.72,0.71,0.82
C[C@H]1C[C@H]2[C@@H]3CCC4=CC(=O)C=C[C@]4(C)[C@H]3C(=O)C[C@]2(C)[C@@]1(O)C(=O)CO [Meprednisone],1,1.44,1.26,0.69,0.88,0.92
